Some of these results come from one statement about several compounds together.
Assays:
two-spotted spider mites = assay: Controlling effect on two-spotted spider mite, spray on inoculated bush bean seedlings; format: in vivo, Tetranychus urticae; details: 500 ppm, 30 ml sprayed on bush bean seedlings with about 60 female imagoes, 8 days after spraying
brown planthoppers = assay: Controlling effect on brown planthopper, spray on rice seedlings; format: in vivo, Nilaparvata lugens; details: 500 ppm, 10 ml sprayed on rice seedlings, 20 third- to fourth-instar larvae, 25° C., after 6 days

SMILES | Controlling rate (two-spotted spider mites) [%] | Controlling value (brown planthoppers) [%]
O=C(NCC1(c2ccccn2)CCN(CCc2ccccc2C(F)(F)F)CC1)c1cc(Cl)nc(Cl)c1 [compound 38, 2,6-dichloro-N-((4-(pyridin-2-yl)-1-(2-(trifluoromethyl)phenethyl)piperidin-4-yl)methyl)isonicotinamide] | ≥ 90 | –
COc1ccccc1CCN1CCC(CNC(=O)c2cc(Cl)nc(Cl)c2)(c2ccccc2)CC1 [compound 26, 2,6-dichloro-N-((1-(2-methoxyphenethyl)-4-phenylpiperidin-4-yl)methyl)isonicotinamide] | – | ≥ 90
Cc1ccccc1CCN1CCC(CNC(=O)c2cc(Cl)nc(Cl)c2)(c2ccccc2)CC1 [compound 27, 2,6-dichloro-N-((1-(2-methylphenethyl)-4-phenylpiperidin-4-yl)methyl)isonicotinamide] | – | ≥ 90

Reference: US20150126516A1, “PIPERIDINE COMPOUND AND ITS USE IN PEST CONTROL” (Sumitomo Chemical Company, Limited, priority 2012, published 2015)
